In paper PMC2848841:
Results are given in words; binding and its absence hold for the method and conditions named. Binding seen in cells or lysates may run through a third protein.

Chains of the proteins cited; added tags and fusions are not shown. A line that says so, or that is headed by a name, gives the form on record, which may keep a tag or linker. Residues count along the entry.
EGFP-M2-APC (15-amino acid repeat region of APC, amino acids 959-1338, fused to EGFP) (P25054, residues 959-1338): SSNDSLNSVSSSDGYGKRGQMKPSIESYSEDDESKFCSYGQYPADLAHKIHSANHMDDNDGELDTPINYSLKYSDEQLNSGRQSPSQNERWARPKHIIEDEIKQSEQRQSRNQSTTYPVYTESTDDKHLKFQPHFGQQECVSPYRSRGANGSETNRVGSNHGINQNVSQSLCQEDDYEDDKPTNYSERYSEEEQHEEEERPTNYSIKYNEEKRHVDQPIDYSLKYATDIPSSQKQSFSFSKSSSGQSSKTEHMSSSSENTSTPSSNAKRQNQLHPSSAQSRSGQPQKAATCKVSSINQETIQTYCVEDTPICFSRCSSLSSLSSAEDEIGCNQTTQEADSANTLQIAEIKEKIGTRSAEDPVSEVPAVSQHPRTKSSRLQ
EGFP-M3-APC (20-amino acid repeat region of APC, amino acids 1211-2075, fused to EGFP) (P25054, residues 1211-2075): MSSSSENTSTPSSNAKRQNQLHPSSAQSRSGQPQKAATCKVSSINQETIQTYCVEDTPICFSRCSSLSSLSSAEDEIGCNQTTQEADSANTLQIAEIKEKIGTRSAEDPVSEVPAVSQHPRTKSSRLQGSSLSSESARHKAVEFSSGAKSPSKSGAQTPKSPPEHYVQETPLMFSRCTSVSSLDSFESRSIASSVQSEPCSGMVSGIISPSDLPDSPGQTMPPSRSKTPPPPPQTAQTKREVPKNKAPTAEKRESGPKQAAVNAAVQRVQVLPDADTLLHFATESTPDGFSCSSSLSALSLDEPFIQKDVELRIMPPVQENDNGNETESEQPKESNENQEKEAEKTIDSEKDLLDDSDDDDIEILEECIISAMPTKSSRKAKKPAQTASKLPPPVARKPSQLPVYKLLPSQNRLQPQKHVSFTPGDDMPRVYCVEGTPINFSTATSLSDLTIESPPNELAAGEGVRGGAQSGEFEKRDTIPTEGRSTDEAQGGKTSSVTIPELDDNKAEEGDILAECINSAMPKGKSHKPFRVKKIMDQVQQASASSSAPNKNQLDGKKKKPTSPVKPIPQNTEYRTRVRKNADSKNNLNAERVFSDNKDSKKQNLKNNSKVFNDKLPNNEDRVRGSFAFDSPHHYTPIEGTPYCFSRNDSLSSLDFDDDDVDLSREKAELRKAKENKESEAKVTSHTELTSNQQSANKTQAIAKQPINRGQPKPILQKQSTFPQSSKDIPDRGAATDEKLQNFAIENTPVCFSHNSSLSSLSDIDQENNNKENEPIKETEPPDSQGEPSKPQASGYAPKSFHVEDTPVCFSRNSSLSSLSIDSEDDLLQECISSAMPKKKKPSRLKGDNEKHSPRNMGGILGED
UniProt Q02880: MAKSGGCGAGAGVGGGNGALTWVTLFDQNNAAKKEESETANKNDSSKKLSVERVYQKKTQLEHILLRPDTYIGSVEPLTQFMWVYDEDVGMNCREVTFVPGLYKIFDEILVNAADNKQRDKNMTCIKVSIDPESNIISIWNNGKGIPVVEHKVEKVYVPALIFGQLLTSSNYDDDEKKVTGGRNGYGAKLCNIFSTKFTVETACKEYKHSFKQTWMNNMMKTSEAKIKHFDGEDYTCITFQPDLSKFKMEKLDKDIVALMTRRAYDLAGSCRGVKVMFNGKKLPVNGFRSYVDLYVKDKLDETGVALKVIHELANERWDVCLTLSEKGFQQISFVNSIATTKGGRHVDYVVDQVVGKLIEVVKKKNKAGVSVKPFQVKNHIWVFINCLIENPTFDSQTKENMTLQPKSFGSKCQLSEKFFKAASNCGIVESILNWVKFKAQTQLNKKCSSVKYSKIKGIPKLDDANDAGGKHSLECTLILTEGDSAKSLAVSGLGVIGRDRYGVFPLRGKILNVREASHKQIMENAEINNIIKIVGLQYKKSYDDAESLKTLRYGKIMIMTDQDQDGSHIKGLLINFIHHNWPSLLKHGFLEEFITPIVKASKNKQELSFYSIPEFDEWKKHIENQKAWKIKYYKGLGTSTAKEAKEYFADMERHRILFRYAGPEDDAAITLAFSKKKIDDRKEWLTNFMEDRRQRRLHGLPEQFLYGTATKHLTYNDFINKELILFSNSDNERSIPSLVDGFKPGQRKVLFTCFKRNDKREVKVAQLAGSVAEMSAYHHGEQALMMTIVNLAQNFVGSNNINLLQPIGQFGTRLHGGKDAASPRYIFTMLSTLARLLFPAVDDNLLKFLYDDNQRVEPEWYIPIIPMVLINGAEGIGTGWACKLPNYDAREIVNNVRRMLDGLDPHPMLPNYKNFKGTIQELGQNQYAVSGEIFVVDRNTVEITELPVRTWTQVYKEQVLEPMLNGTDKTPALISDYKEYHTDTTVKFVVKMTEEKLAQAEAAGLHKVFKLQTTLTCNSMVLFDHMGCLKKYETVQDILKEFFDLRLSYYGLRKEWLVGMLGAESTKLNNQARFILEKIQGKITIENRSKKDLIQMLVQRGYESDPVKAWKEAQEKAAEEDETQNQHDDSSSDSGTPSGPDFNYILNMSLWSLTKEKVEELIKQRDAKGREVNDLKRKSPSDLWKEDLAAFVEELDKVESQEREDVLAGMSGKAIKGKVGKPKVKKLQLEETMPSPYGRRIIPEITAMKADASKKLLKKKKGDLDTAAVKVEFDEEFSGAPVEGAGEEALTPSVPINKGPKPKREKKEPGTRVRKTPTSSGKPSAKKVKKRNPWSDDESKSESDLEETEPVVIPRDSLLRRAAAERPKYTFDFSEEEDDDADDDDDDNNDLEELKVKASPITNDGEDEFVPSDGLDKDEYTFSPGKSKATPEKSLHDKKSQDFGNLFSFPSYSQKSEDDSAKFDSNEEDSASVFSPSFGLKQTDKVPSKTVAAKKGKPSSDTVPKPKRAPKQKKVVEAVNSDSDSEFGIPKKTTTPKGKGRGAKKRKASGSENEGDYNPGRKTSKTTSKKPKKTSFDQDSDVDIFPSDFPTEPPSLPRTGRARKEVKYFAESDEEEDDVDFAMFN

Columns and labels:
[1] = target: EGFP-M2-APC (15-amino acid repeat region of APC, amino acids 959-1338, fused to EGFP) (UniProt P25054); assay: co-IP; anti-GFP pAb immunoprecipitates EGFP, EGFP-M2-APC or EGFP-M3-APC from transfected HCT116βw cells; immunoblots for endogenous topo IIα, topo IIβ, β-catenin; three independent experiments
[2] = target: EGFP-M3-APC (20-amino acid repeat region of APC, amino acids 1211-2075, fused to EGFP) (UniProt P25054); assay: as above

topoisomerase IIβ (endogenous) (from UniProt Q02880 1-1626) (enzyme)
binding [1]: no binding | binding [2]: no binding
